Results are given in words; binding and its absence hold for the method and conditions named. For some of these results: In cells and extracts the contact can be indirect. Some binding calls cover weakened binding; strength is not graded here. Tags and fused reporters may be left off the sequences shown.
Legend:
[1] = target: T1, HYL1^L165E, recombinant (MBP-L165E and GST-L165E) (Arabidopsis thaliana) (UniProt O04492); assay: pull-down; MBP-tagged protein on amylose resin, incubated with GST-tagged protein overnight at 4°C in 25 mM Tris pH 7.4, 1 mM EDTA, 0.01% NP-40, 2 M NaCl; 10 washes; immunoblot with GST antibody; both purified
T1 sequence: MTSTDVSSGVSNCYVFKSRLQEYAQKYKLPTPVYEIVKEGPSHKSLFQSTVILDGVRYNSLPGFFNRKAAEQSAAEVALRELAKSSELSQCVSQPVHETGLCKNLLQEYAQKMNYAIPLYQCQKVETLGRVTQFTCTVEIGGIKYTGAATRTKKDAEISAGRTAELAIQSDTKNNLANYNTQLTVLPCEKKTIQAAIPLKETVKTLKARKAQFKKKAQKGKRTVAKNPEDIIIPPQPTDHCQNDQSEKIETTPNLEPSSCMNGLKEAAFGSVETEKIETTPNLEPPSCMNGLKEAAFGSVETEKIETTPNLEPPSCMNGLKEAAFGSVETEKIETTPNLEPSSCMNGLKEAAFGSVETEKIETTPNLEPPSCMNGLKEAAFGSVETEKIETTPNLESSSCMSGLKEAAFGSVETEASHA

[2] = target: T2, HYL1^G147E, recombinant (MBP-G147E and GST-G147E) (Arabidopsis thaliana) (UniProt O04492); assay: as above
T2 sequence: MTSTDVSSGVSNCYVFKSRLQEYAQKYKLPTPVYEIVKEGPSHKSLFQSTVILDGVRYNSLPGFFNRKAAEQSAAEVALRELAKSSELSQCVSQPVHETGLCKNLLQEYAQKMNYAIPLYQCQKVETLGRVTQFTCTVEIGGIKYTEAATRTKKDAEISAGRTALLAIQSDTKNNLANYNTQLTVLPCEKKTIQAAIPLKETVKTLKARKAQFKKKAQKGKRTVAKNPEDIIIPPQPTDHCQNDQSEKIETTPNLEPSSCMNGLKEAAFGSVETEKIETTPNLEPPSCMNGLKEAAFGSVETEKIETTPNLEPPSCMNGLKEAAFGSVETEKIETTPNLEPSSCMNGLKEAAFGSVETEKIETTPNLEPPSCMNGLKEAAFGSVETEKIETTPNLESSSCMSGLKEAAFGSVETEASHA

[3] = target: T3, HYL1, wild type, BiFC fusion (nYFP- and cYFP-tagged) (Arabidopsis thaliana), O04492; assay: split reporter; BiFC: cYFP-tagged and nYFP-tagged constructs cotransformed into Arabidopsis protoplasts, 22.5°C in darkness for 12 h, confocal microscopy; settings: remark: other sources report otherwise
T3 chain: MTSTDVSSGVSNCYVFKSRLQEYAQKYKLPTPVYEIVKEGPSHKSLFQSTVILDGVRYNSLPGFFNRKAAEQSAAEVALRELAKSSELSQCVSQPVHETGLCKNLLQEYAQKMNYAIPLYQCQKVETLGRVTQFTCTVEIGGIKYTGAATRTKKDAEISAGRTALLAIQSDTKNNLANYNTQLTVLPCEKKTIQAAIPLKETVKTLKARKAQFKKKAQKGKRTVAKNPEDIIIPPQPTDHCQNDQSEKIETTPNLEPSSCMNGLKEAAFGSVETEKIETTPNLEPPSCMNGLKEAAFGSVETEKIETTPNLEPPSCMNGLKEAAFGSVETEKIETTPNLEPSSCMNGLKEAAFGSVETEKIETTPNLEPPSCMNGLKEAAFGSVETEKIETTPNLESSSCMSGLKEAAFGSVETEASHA

[4] = target: T4, HYL1, wild type, BiFC fusion (nYFP- and cYFP-tagged) (Arabidopsis thaliana) (UniProt O04492); assay: as above
T4 sequence: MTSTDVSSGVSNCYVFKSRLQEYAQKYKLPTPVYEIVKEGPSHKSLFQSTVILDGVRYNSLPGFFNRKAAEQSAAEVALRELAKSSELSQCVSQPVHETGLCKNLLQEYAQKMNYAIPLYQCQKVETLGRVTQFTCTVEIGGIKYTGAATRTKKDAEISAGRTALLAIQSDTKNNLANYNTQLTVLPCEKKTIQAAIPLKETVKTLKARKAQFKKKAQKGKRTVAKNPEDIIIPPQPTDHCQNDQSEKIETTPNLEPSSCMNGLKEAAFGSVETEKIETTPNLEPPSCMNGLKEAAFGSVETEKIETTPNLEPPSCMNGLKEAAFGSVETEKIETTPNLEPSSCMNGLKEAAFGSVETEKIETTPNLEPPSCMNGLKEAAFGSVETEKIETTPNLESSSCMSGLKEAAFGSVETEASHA

[5] = target: T5, HYL1^L165E, BiFC fusion (Arabidopsis thaliana) (UniProt O04492); assay: as above
T5 sequence: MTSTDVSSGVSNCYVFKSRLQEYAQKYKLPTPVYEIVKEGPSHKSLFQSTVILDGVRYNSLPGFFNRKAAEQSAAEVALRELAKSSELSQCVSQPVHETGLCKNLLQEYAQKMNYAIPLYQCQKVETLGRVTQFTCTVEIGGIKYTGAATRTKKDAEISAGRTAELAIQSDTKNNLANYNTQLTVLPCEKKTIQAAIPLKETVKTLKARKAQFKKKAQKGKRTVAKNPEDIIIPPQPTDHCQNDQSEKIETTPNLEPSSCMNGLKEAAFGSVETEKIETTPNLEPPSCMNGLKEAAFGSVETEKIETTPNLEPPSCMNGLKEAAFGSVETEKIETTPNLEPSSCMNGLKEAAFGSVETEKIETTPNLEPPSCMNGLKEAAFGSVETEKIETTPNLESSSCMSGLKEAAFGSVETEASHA

[6] = target: T2, HYL1^G147E, recombinant (MBP-G147E and GST-G147E) (Arabidopsis thaliana); assay: pull-down; recombinant HYL1 or mutant from E. coli with DCL1 or SE tagged with 3×Flag purified from HEK293; western analysis; bait not stated; both purified
[7] = target: T1, HYL1^L165E, recombinant (MBP-L165E and GST-L165E) (Arabidopsis thaliana); assay: as above

B1: HYL1^L165E, recombinant (MBP-L165E and GST-L165E) (protein, UniProt O04492 1-419)
chain: MTSTDVSSGVSNCYVFKSRLQEYAQKYKLPTPVYEIVKEGPSHKSLFQSTVILDGVRYNSLPGFFNRKAAEQSAAEVALRELAKSSELSQCVSQPVHETGLCKNLLQEYAQKMNYAIPLYQCQKVETLGRVTQFTCTVEIGGIKYTGAATRTKKDAEISAGRTAELAIQSDTKNNLANYNTQLTVLPCEKKTIQAAIPLKETVKTLKARKAQFKKKAQKGKRTVAKNPEDIIIPPQPTDHCQNDQSEKIETTPNLEPSSCMNGLKEAAFGSVETEKIETTPNLEPPSCMNGLKEAAFGSVETEKIETTPNLEPPSCMNGLKEAAFGSVETEKIETTPNLEPSSCMNGLKEAAFGSVETEKIETTPNLEPPSCMNGLKEAAFGSVETEKIETTPNLESSSCMSGLKEAAFGSVETEASHA
binding [1]: binds weakly

B2: HYL1, full-length, recombinant (MBP-HYL1 and GST-HYL1) (protein, UniProt O04492 1-419)
chain: MTSTDVSSGVSNCYVFKSRLQEYAQKYKLPTPVYEIVKEGPSHKSLFQSTVILDGVRYNSLPGFFNRKAAEQSAAEVALRELAKSSELSQCVSQPVHETGLCKNLLQEYAQKMNYAIPLYQCQKVETLGRVTQFTCTVEIGGIKYTGAATRTKKDAEISAGRTALLAIQSDTKNNLANYNTQLTVLPCEKKTIQAAIPLKETVKTLKARKAQFKKKAQKGKRTVAKNPEDIIIPPQPTDHCQNDQSEKIETTPNLEPSSCMNGLKEAAFGSVETEKIETTPNLEPPSCMNGLKEAAFGSVETEKIETTPNLEPPSCMNGLKEAAFGSVETEKIETTPNLEPSSCMNGLKEAAFGSVETEKIETTPNLEPPSCMNGLKEAAFGSVETEKIETTPNLESSSCMSGLKEAAFGSVETEASHA
binding [2]: binds weakly
binding [1]: binds weakly

B3: HYL1, wild type, BiFC fusion (nYFP- and cYFP-tagged), O04492 1-419 (protein)
chain: MTSTDVSSGVSNCYVFKSRLQEYAQKYKLPTPVYEIVKEGPSHKSLFQSTVILDGVRYNSLPGFFNRKAAEQSAAEVALRELAKSSELSQCVSQPVHETGLCKNLLQEYAQKMNYAIPLYQCQKVETLGRVTQFTCTVEIGGIKYTGAATRTKKDAEISAGRTALLAIQSDTKNNLANYNTQLTVLPCEKKTIQAAIPLKETVKTLKARKAQFKKKAQKGKRTVAKNPEDIIIPPQPTDHCQNDQSEKIETTPNLEPSSCMNGLKEAAFGSVETEKIETTPNLEPPSCMNGLKEAAFGSVETEKIETTPNLEPPSCMNGLKEAAFGSVETEKIETTPNLEPSSCMNGLKEAAFGSVETEKIETTPNLEPPSCMNGLKEAAFGSVETEKIETTPNLESSSCMSGLKEAAFGSVETEASHA
binding [3]: binds

B4: HYL1^L165E, BiFC fusion (protein, UniProt O04492 1-419)
chain: MTSTDVSSGVSNCYVFKSRLQEYAQKYKLPTPVYEIVKEGPSHKSLFQSTVILDGVRYNSLPGFFNRKAAEQSAAEVALRELAKSSELSQCVSQPVHETGLCKNLLQEYAQKMNYAIPLYQCQKVETLGRVTQFTCTVEIGGIKYTGAATRTKKDAEISAGRTAELAIQSDTKNNLANYNTQLTVLPCEKKTIQAAIPLKETVKTLKARKAQFKKKAQKGKRTVAKNPEDIIIPPQPTDHCQNDQSEKIETTPNLEPSSCMNGLKEAAFGSVETEKIETTPNLEPPSCMNGLKEAAFGSVETEKIETTPNLEPPSCMNGLKEAAFGSVETEKIETTPNLEPSSCMNGLKEAAFGSVETEKIETTPNLEPPSCMNGLKEAAFGSVETEKIETTPNLESSSCMSGLKEAAFGSVETEASHA
binding [4]: binds weakly
binding [5]: binds weakly

B5: HYL1^G147E, BiFC fusion (protein, UniProt O04492 1-419)
chain: MTSTDVSSGVSNCYVFKSRLQEYAQKYKLPTPVYEIVKEGPSHKSLFQSTVILDGVRYNSLPGFFNRKAAEQSAAEVALRELAKSSELSQCVSQPVHETGLCKNLLQEYAQKMNYAIPLYQCQKVETLGRVTQFTCTVEIGGIKYTEAATRTKKDAEISAGRTALLAIQSDTKNNLANYNTQLTVLPCEKKTIQAAIPLKETVKTLKARKAQFKKKAQKGKRTVAKNPEDIIIPPQPTDHCQNDQSEKIETTPNLEPSSCMNGLKEAAFGSVETEKIETTPNLEPPSCMNGLKEAAFGSVETEKIETTPNLEPPSCMNGLKEAAFGSVETEKIETTPNLEPSSCMNGLKEAAFGSVETEKIETTPNLEPPSCMNGLKEAAFGSVETEKIETTPNLESSSCMSGLKEAAFGSVETEASHA
binding [4]: binds weakly

B6: SE, BiFC fusion, Q9ZVD0 1-720 (protein)
chain: MADVNLPPSDSVDNRLPEKSTSSSPPPPPPSSSLPQQEQEQDQQQLPLRRERDSRERRDERDIERPPPNRRERDRSPLPPPRRDYKRRPSLSPPPPYRDRRHSPPQRRSPPQKRYRRDDNGYDGRRGSPRGGYGPPDRRFGYDHGGGYDREMGGRPGYGDERPHGRFMGRYQDWEGGRGGYGDASNSGNPQRDGLMSYKQFIQELEDDILPSEAERRYQEYKSEYITTQKRAFFNTHKEEDWLKNKYHPTNLLSVIERRNDLAQKVAKDFLLDLQSGTLDLGPAVTALNKSGRTSEPNSEDEAAGVGKRKRHGMGGAKENELLSAAPKAPSFTSDPKRILTDVEQTQALVRKLDSEKKIEENVLQGSETEKSGREKLHSGSTGPVVIIRGLTSVKGLEGVELLDTLVTYLWRVHGLDYYGKVETNEAKGLRHVRAEGKVSDAKGDENESKFDSHWQERLKGQDPLEVMAAKEKIDAAATEALDPHVRKIRDEKYGWKYGCGAKGCTKLFHAAEFVYKHLKLKHTELVTELTTKVREELYFQNYMNDPNAPGGQPATQQSGPRDRPIRRKPSMENRLRDDRGGRRERDGRANGNDRNDRSEDQQRGDNDGGNPGEVGYDAFGGQGGVHVPPFLSDINPPPMLMPVPGAGPLGPFVPAPPEVAMQMFRDPSGPNPPFEGSGRGGPAPFLLSPAFRQDPRRLRSYQDLDAPEEEVTVIDYRSL
binding [3]: binds

B7: SE tagged with 3×Flag, recombinant (protein, UniProt Q9ZVD0 1-720)
chain: MADVNLPPSDSVDNRLPEKSTSSSPPPPPPSSSLPQQEQEQDQQQLPLRRERDSRERRDERDIERPPPNRRERDRSPLPPPRRDYKRRPSLSPPPPYRDRRHSPPQRRSPPQKRYRRDDNGYDGRRGSPRGGYGPPDRRFGYDHGGGYDREMGGRPGYGDERPHGRFMGRYQDWEGGRGGYGDASNSGNPQRDGLMSYKQFIQELEDDILPSEAERRYQEYKSEYITTQKRAFFNTHKEEDWLKNKYHPTNLLSVIERRNDLAQKVAKDFLLDLQSGTLDLGPAVTALNKSGRTSEPNSEDEAAGVGKRKRHGMGGAKENELLSAAPKAPSFTSDPKRILTDVEQTQALVRKLDSEKKIEENVLQGSETEKSGREKLHSGSTGPVVIIRGLTSVKGLEGVELLDTLVTYLWRVHGLDYYGKVETNEAKGLRHVRAEGKVSDAKGDENESKFDSHWQERLKGQDPLEVMAAKEKIDAAATEALDPHVRKIRDEKYGWKYGCGAKGCTKLFHAAEFVYKHLKLKHTELVTELTTKVREELYFQNYMNDPNAPGGQPATQQSGPRDRPIRRKPSMENRLRDDRGGRRERDGRANGNDRNDRSEDQQRGDNDGGNPGEVGYDAFGGQGGVHVPPFLSDINPPPMLMPVPGAGPLGPFVPAPPEVAMQMFRDPSGPNPPFEGSGRGGPAPFLLSPAFRQDPRRLRSYQDLDAPEEEVTVIDYRSL
binding [6]: binds
binding [7]: binds

Source: paper PMC4231765
